# Test results from PubChem BioAssay AID540256 (National Center for Advancing Translational Sciences (NCATS), 2011).
# About 3,700 (1.2%) of roughly 300,000 compounds were called active. The inconclusive results got no clear call from the source; some entries with a clear call stand among them for comparison. The call rests on the fitted dose curve; tested in HEK293 cells. Where the call is inconclusive, the potency comes from a doubtful curve fit.
# Assay: qHTS for Inhibitors of binding or entry into cells for Lassa Virus; further: nearly all actives have a fitted effect of over 50% in size
# Settings: Lassa virus pseudotype entry inhibition, cell reporter; series mostly up to 37.9 µM
# Potency means the concentration at half of the fitted maximal effect.
row,SMILES,Potency
1,Cc1cccc(NC(=S)NC(NC(=O)OCc2ccccc2)C(Cl)(Cl)Cl)c1 (stereo unspecified),"inconclusive: 29.1 µM [inhibitor, single point]"
2,Brc1ccc(OCCCN2CCOCC2)cc1,inactive
3,C=CCn1cnc2c(c1=O)c1nc3ccccc3nc1n2/N=C/c1ccccn1,inactive
4,Cc1ccc(COC(=O)c2cccc(S(=O)(=O)N3CCCCCC3)c2)cc1,"inconclusive: 11.2 µM [inhibitor, partial curve, poor fit]"
5,O=C(NCCOc1ccccc1F)c1cccc(S(=O)(=O)N2CCN(c3ccccc3)CC2)c1,"inconclusive: 5.62 µM [inhibitor, partial curve, poor fit]"
6,CC1C/C(=N/NC(=O)c2ccc(CSc3nc4ccccc4[nH]3)cc2)CC(C)(C)C1 (stereo unspecified),"inconclusive: 20 µM [inhibitor, partial curve, poor fit]"
7,Fc1cccc(Cl)c1Cn1nnc2c(NCc3ccccn3)ncnc21,inactive
8,CC(C)CNC(=O)COc1ccc(Sc2ccc(OCC(=O)NCC(C)C)cc2)cc1,"inconclusive: 4.47 µM [inhibitor, partial curve, poor fit]"
9,CCCNC(=O)COC(=O)c1cc(-c2ccc(OC)cc2)nc2ccccc12,"inconclusive: 12.6 µM [inhibitor, partial curve, poor fit]"
10,CSc1n[nH]c(=O)n1-c1ccc(Cl)cc1,"inconclusive: 5.62 µM [inhibitor, single point]"
11,COc1ccc(OC)c(-n2c(SCC(C)=O)nnc2-c2cccc(S(=O)(=O)N(C)C)c2)c1,"inconclusive: 2.31 µM [inhibitor, partial curve, poor fit]"
12,Cc1cccc(C(=O)N/N=C/c2ccc(OCC(=O)N3CCCCC3)cc2)c1,inactive
13,CC(=O)Nc1ccc(Cl)cc1-c1ccccc1,"inconclusive: 35.5 µM [inhibitor, single point]"
14,COC(=O)CCC(=O)Nc1cccc([N+](=O)[O-])c1,inactive
15,CC1C(=O)OC(c2ccc(Cl)cc2)C(C)(C)C1=O (stereo unspecified),inactive
16,Cc1nnc(SCC(=O)Nc2cc(-c3cc(C)c(C)cc3C)nn2-c2ccccc2)s1,"inconclusive: 18.4 µM [inhibitor, single point]"
17,CC(C)c1ccc(/C=C(\c2nc3ccccc3[nH]2)S(=O)(=O)c2ccccc2)cc1,"inconclusive: 3.16 µM [inhibitor, full curve, poor fit]"
18,COc1ccccc1/C=C/CN1CCCC(CCC(=O)NCc2ccccc2F)C1 (stereo unspecified),"inconclusive: 35.5 µM [inhibitor, single point]"
19,O=C(CCNC(=O)Cn1ccc2ccccc2c1=O)NCCN1CCN(c2cccc(Cl)c2)CC1,"inconclusive: 0.517 µM [activator, full curve]"
20,COc1ccc(-c2nn(C)c3sc(C(=O)Nc4cccc(F)c4)cc23)cc1OC,"inconclusive: 35.5 µM [inhibitor, single point]"
21,Cc1cc(C)cc(-c2nnc(SCC(=O)NCc3cccs3)o2)c1,"inconclusive: 0.116 µM [inhibitor, full curve, poor fit]"

# Filtered by structure, the compounds so far containing a halogen (ten)
row,SMILES,Potency
1,Cc1cccc(NC(=S)NC(NC(=O)OCc2ccccc2)C(Cl)(Cl)Cl)c1 (stereo unspecified),"inconclusive: 29.1 µM [inhibitor, single point]"
2,Brc1ccc(OCCCN2CCOCC2)cc1,inactive
5,O=C(NCCOc1ccccc1F)c1cccc(S(=O)(=O)N2CCN(c3ccccc3)CC2)c1,"inconclusive: 5.62 µM [inhibitor, partial curve, poor fit]"
7,Fc1cccc(Cl)c1Cn1nnc2c(NCc3ccccn3)ncnc21,inactive
10,CSc1n[nH]c(=O)n1-c1ccc(Cl)cc1,"inconclusive: 5.62 µM [inhibitor, single point]"
13,CC(=O)Nc1ccc(Cl)cc1-c1ccccc1,"inconclusive: 35.5 µM [inhibitor, single point]"
15,CC1C(=O)OC(c2ccc(Cl)cc2)C(C)(C)C1=O (stereo unspecified),inactive
18,COc1ccccc1/C=C/CN1CCCC(CCC(=O)NCc2ccccc2F)C1 (stereo unspecified),"inconclusive: 35.5 µM [inhibitor, single point]"
19,O=C(CCNC(=O)Cn1ccc2ccccc2c1=O)NCCN1CCN(c2cccc(Cl)c2)CC1,"inconclusive: 0.517 µM [activator, full curve]"
20,COc1ccc(-c2nn(C)c3sc(C(=O)Nc4cccc(F)c4)cc23)cc1OC,"inconclusive: 35.5 µM [inhibitor, single point]"

# Later entries:

row,SMILES,Potency
1,O=C(O)C1CCN(C(=O)OCc2ccccc2)CC1,"inconclusive: 3.26 µM [activator, partial curve, poor fit]"
2,CCCNC(=O)c1cc(-c2ccc(Br)cc2)on1,"inconclusive: 3.16 µM [activator, partial curve]"
3,Cc1ccc(C)c(S(=O)(=O)NCc2ccncc2)c1,inactive
4,COc1ccc(C2N(c3ccc(C)cc3)CCN2c2ccc(C)cc2)cc1O,"inconclusive: 14.1 µM [inhibitor, single point]"
5,Cc1c(Cl)cccc1-n1ncc(C(=O)Nc2ccc3c(c2)OCCO3)c1C1CCN(C(=O)OC(C)(C)C)CC1,"inconclusive: 28.2 µM [inhibitor, partial curve, poor fit]"
6,O=C(Nc1ccc(S(=O)(=O)NCC2CCCO2)cc1)c1cccc(F)c1 (stereo unspecified),"inconclusive: 35.5 µM [inhibitor, single point]"
7,CCC(CC)c1nnc(NC(=O)c2cccc(S(=O)(=O)N3CCc4ccccc43)c2)s1,"inconclusive: 9.2 µM [inhibitor, partial curve, poor fit]"
8,CCOC(=O)N/N=C/c1ccc(OCCSc2ccc(Cl)cc2)c(OC)c1,"inconclusive: 14.6 µM [inhibitor, partial curve, poor fit]"
9,Cc1nn(-c2ccccc2)c(C)c1/C=N/NC(=O)c1cc(-c2cccs2)[nH]n1,"inconclusive: 0.206 µM [inhibitor, full curve, poor fit]"
10,Cc1ccc(CN2CC(C(=O)Nc3ccc(S(=O)(=O)N4CCCCC4)cc3)CC2=O)cc1 (stereo unspecified),"inconclusive: 14.1 µM [inhibitor, partial curve, poor fit]"
11,COC(=O)c1ccc(COC(=O)c2cnc(Cl)c(Cl)c2)cc1,"inconclusive: 20 µM [activator, single point]"
12,O=S(=O)(Nc1ccc(Cl)cc1NS(=O)(=O)c1ccccc1)c1ccccc1,inactive
13,COc1cc(-c2noc(-c3cc4cc(F)ccc4oc3=O)n2)cc(OC)c1OC,"inconclusive: 35.5 µM [activator, single point]"
14,O=C1CC(c2cccs2)c2cc3c(cc2N1)OCCO3 (stereo unspecified),"inconclusive: 1.46 µM [inhibitor, full curve]"
15,COC(=O)c1ccc(NC(=O)c2c(NCc3ccc(C)o3)sc3c2CCCC3)cc1,"inconclusive: 35.5 µM [inhibitor, single point]"
16,C/C(=N\NC(=O)c1nc2ccccn2c1C)c1ccc2c(c1)OCO2,inactive
17,c1ccc(CSc2nnc(-c3cccs3)o2)cc1,"inconclusive: 0.73 µM [activator, partial curve]"
18,COc1cc(/C=C/C(=O)c2ccc(Cl)s2)cc(OC)c1O,"inconclusive: 29.1 µM [inhibitor, single point]"
19,CCc1ccc(-c2nc3ccc(Br)cc3c(C(=O)O)c2C)s1,"inconclusive: 35.5 µM [inhibitor, single point]"
20,CCn1c(=O)cc(SCC(=O)Nc2ccc3c(c2)OCO3)c2ccccc21,inactive
